The list shows a part of the results. Shown are side measurements of this screen, not its main read-out; they come without a call. The list favours compounds with an active or inconclusive main result. Words in brackets tell the shape of the fitted curve; partial curves, single points and poor fits give uncertain potencies.
Test: IkB Signaling
Conditions: ABC-DLBCL IkBa-CBG/CBR dual luciferase ratio (green luciferase fused to IkBa over red control in OCI-Ly3 lymphoma cells), 4 h
Outline: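 Luminescence ratio of IκBα-fused green versus native red beetle luciferase in OCI-Ly3 cells, 4 h post-doxycycline with compound; red signal alone, scaled from basal (0%) to zero light (-100%), flagged nonspecific or cytotoxic effects.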

[1] = measured here: control luc red channel unless noted

## CCC(OC(=O)c1cc2sccc2n1C)C(=O)NCC1CCCO1 (configuration not stated)
[1]
  AC50: 39.8 µM [falling, single point]

## CC(=O)c1cccc(-n2c(=O)c3c4c(sc3n(CC(=O)c3ccccc3)c2=O)CN(C(C)=O)CC4)c1
[1]
  AC50: 3.98 µM [rising, single point]

## Cc1nc(C)c(-c2ccc(SCC(=O)Nc3ccc(Br)cc3)nn2)s1
[1]
  AC50: 0.316 µM [falling, partial curve, poor fit]

## Cc1ccc2[nH]c3c(c2c1)CN(C(=O)CN1CCN(Cc2ccc4c(c2)OCO4)CC1)CC3
[1]
  AC50: 12.6 µM [falling, partial curve]

## CN(c1ccc(C(=O)Nc2nccs2)cc1)S(=O)(=O)c1ccccc1
[1]
  AC50: 15.8 µM [falling, partial curve]

## CC(=O)c1cc2c(cc1N/C(=N/S(=O)(=O)c1ccc(Cl)cc1)c1ccc(F)cc1)OCO2
[1]
  AC50: 5.01 µM [rising, partial curve]

## CCOC(=O)C1CCCN(C(=O)c2cc3c(=O)[nH]c4ccc(C)cc4c3s2)C1 (configuration not stated)
[1]
  AC50: 39.8 µM [falling, single point]

## CN(Cc1ccccc1)S(=O)(=O)c1cc(Br)cc2c1N(C(=O)C1CC1)CC2
[1]
  AC50: 3.98 µM [falling, full curve]

## CCN(CCCNC(=O)CN1N=C(c2ccc(OC)cc2)CCC1=O)c1cccc(C)c1
[1]
  AC50: 39.8 µM [falling, single point]

## Cc1cccc(N2CCN(C(=O)c3cn(CC(C)C)c(=O)c4c3c3ccccc3n4C)CC2)c1C
[1]
  AC50: 20 µM [falling, partial curve]

## Cc1ccc(-c2noc(CNC(=O)c3ccc(Br)o3)n2)cc1
[1]
  AC50: 15.8 µM [falling, partial curve, poor fit]

## CC(=O)c1cccc(NC(=O)c2cc(-c3ccc(Cl)s3)nc3ccccc23)c1
[1]
  AC50: 2 µM [falling, full curve, poor fit]

## COc1ccc(NC(=O)CC2C(=O)N(c3cccc(C)c3)C(=O)N2C2CCCCC2)cc1 (configuration not stated)
[1]
  AC50: 39.8 µM [falling, single point]

## c1nc(N2CCOCC2)c2c3c(sc2n1)CCCC3
[1]
  AC50: 15.8 µM [falling, partial curve]

## COc1cccc(C(=O)Nc2ccc(-c3cc(C(F)(F)F)nn3-c3ccccc3)cc2)c1
[1]
  AC50: 20 µM [falling, partial curve]

## CC(C)N(C(=O)CSc1nnc(-c2cc3ccccc3cc2O)n1Cc1ccco1)C(C)C
[1]
  AC50: 15.8 µM [falling, partial curve]

## CCOc1ccccc1CNS(=O)(=O)c1ccc2[nH]c(=O)ccc2c1
[1]
  AC50: 39.8 µM [falling, single point]

## Cc1ccc(C)c(CN2C(=O)N(c3cc(Cl)ccc3C)S(=O)(=O)c3ccccc32)c1
[1]
  AC50: 0.316 µM [falling, full curve]

## O=C(Nc1nc2ccccc2n1CCN1CCOCC1)c1cn(-c2ccccc2)nc1-c1ccccc1
[1]
  AC50: 10 µM [falling, partial curve]

## COc1ccccc1N1CCN(C(=O)Cn2cnc3onc(-c4ccc(F)cc4)c3c2=O)CC1
[1]
  AC50: 0.0398 µM [falling, full curve, poor fit]

## O=C(c1ccc2c(=O)n(CCc3ccccc3)c(=O)[nH]c2c1)N1CCN(c2ccc(F)cc2)CC1
[1]
  AC50: 5.01 µM [falling, partial curve]

## COc1cccc(N2CC(NC(=O)c3ccco3)CC2=O)c1 (configuration not stated)
[1]
  AC50: 6.31 µM [rising, single point]

## CCOC(=O)CSc1nc2sc3c(c2c(=O)[nH]1)CCCC3
[1]
  AC50: 31.6 µM [rising, partial curve] [measured here: IkB-luc green channel]

## CCn1c(=O)[nH]c2cc(Cl)c(Cl)cc21
[1]
  AC50: 39.8 µM [falling, partial curve, poor fit]

## CCOc1ccccc1N(CC(=O)NCCSc1ccccc1)S(=O)(=O)c1ccccc1
[1]
  AC50: 10 µM [falling, partial curve]

## COc1ccccc1Cc1nc2ccccc2nc1SCC(=O)N(C)c1ccc(F)cc1
[1]
  AC50: 39.8 µM [falling, single point]

## Cc1nnc(N2CCC(C(=O)NCCc3ccccc3Cl)CC2)c2nn(-c3ccccc3)c(C)c12
[1]
  AC50: 7.94 µM [falling, partial curve]

## COC(=O)c1sccc1NC(=O)c1cc2c(s1)CCCC2
[1]
  AC50: 10 µM [falling, partial curve]

## Cc1cccc(N2CCN(C(=O)Nc3cn(CC(C)C)c(=O)c4ccccc34)CC2)c1C
[1]
  AC50: 39.8 µM [falling, single point]

## CCOC(=O)N1CCN(c2c(F)cc3[nH]c(=S)[nH]c3c2Br)CC1
Measured here: IkB-luc green channel
  AC50: 25.1 µM [falling, partial curve]
Measured here: control luc red channel
  AC50: 25.1 µM [falling, partial curve]

## CC(C)(C)c1ccc(-c2nc(SCCCOc3ccccc3)n3[nH]c(=O)cc3n2)cc1
[1]
  AC50: 39.8 µM [falling, single point]

## COc1ccc(-c2c3c(=O)n(C)c(=O)n(C)c3c3c(C)nc4ccccc4n23)cc1
[1]
  AC50: 0.126 µM [falling, partial curve]

## Cc1ccc(-c2nnc(SCc3cccc(C#N)c3)o2)cc1
[1]
  AC50: 39.8 µM [falling, single point]

## COc1nc(N(c2ccccc2)c2ccccc2)nc(-n2ccnc2)n1
[1]
  AC50: 25.1 µM [falling, partial curve]

## CCOC(=O)Cn1c(=O)n(-c2ccccc2OC)c2nc(-c3cccc(F)c3)nc(C(N)=O)c21
[1]
  AC50: 12.6 µM [falling, partial curve]

## CCCCc1ccc(NC(=O)c2ccc(=O)n(Cc3cccc(C)c3)c2)cc1
[1]
  AC50: 39.8 µM [falling, single point]

## COc1ccc(-c2nc(C)c(CCNS(=O)(=O)c3cc(C)c(C)cc3C)s2)cc1
[1]
  AC50: 39.8 µM [falling, single point]

## CN(C)CCNC(=O)c1ccc2c(=O)n3c(nc2c1)CCCCC3
[1]
  AC50: 5.01 µM [rising, partial curve]

## COc1cccc(N2CCN(C(=O)CCc3c(C)nc4c(c3C)c(=O)n(C)c(=O)n4C)CC2)c1
[1]
  AC50: 39.8 µM [falling, single point]

## Cc1ccccc1-n1c(SCc2ccc(Cl)cc2)nc2[nH]ncc2c1=O
[1]
  AC50: 39.8 µM [falling, single point]

## CCC(C)NC(=O)c1ccc2c(c1)N(Cc1ccccc1)C(=O)c1ccccc1S2 (configuration not stated)
[1]
  AC50: 20 µM [falling, single point]

## CCOc1ccc2[nH]c(=O)c(CN(Cc3nnnn3Cc3ccco3)C3CCCCC3)cc2c1
[1]
  AC50: 15.8 µM [falling, partial curve]

## Cc1cc(C)n(-c2nncc(-c3ccccc3)n2)n1
[1]
  AC50: 15.8 µM [falling, partial curve]

## CCc1ccccc1NC(=O)N(C)CCc1c(C)nn(C)c1C
[1]
  AC50: 0.316 µM [rising, full curve, poor fit]

## COC(=O)CCC(=O)Nc1cccc(Cl)c1
[1]
  AC50: 10 µM [falling, partial curve, poor fit] [measured here: IkB-luc green channel]

## Cc1ccc(-c2nc3sc(CCNC(=O)c4ccc(C)c(C)c4)c(C)n3n2)cc1
[1]
  AC50: 6.31 µM [falling, partial curve]

## O=C(CCS(=O)(=O)c1cccs1)Nc1ccc(C(=O)Nc2ccccc2F)cc1
[1]
  AC50: 31.6 µM [falling, single point]

## CCSc1ncc(Cl)c(C(=O)Nc2ccc(S(=O)(=O)N3CCCCC3)cc2)n1
[1]
  AC50: 6.31 µM [falling, partial curve]

## Cc1ccc(C)c(Cn2cc(S(=O)(=O)c3ccc(Cl)cc3)c(=O)c3cc(F)ccc32)c1
[1]
  AC50: 10 µM [falling, partial curve]

## CCCCN(CCCC)CCNC(=O)c1cn(CC)c2ccc(S(=O)(=O)N(C)C3CCCCC3)cc2c1=O
[1]
  AC50: 12.6 µM [falling, partial curve]

## Cc1ccc(-c2c(C)n3c4c(=O)n(C)c(=O)n(C)c4nc3n2CCO)cc1
[1]
  AC50: 3.16 µM [falling, partial curve]

## CC(=O)N1CCc2c(sc3c2c(=O)n(CCc2ccccc2)c(=O)n3Cc2ccc(Cl)cc2)C1
[1]
  AC50: 12.6 µM [falling, single point]

## CCOCCCNc1ncnc2c1cnn2-c1ccc(C)c(C)c1
[1]
  AC50: 12.6 µM [falling, partial curve]

## Cc1cc2c(cc1S(=O)(=O)N1CCCCC1)OCC(=O)N2
[1]
  AC50: 7.94 µM [rising, partial curve]

## CCOC(=O)Cc1csc(SCC(=O)Nc2sc3c(c2C(N)=O)CCC3)n1
[1]
  AC50: 31.6 µM [falling, single point]

## CCOc1nc(NCCc2ccc(OC)c(OC)c2)nc(NC(C)(C)CO)n1
[1]
  AC50: 25.1 µM [falling, partial curve]

## CCOc1ccc(C(=O)NCC(c2ccco2)S(=O)(=O)c2cccs2)cc1 (configuration not stated)
[1]
  AC50: 3.98 µM [falling, partial curve]

## O=C(CSc1nc(O)c(Cc2ccccc2)c(=O)[nH]1)Nc1ccccc1
[1]
  AC50: 10 µM [falling, partial curve]

## Cc1nn(-c2ccc(N3CCCC3)nn2)c(C)c1CCC(=O)N1CCN(c2ccccc2)CC1
[1]
  AC50: 39.8 µM [falling, single point]

## COc1ccc2c(C)c(CCC(=O)NCc3ccc(Cl)cc3)c(=O)oc2c1C
[1]
  AC50: 3.16 µM [rising, partial curve, poor fit]

## COC(=O)c1ccc(C(=O)OC)c(NC(=O)c2cnn3c(C(F)F)cc(-c4ccccc4)nc23)c1
[1]
  AC50: 0.398 µM [rising, partial curve]
